Experimental data as given in publication PMC11988436.

Chains of the proteins cited; added tags and fusions are not shown.
UniProt Q6R891: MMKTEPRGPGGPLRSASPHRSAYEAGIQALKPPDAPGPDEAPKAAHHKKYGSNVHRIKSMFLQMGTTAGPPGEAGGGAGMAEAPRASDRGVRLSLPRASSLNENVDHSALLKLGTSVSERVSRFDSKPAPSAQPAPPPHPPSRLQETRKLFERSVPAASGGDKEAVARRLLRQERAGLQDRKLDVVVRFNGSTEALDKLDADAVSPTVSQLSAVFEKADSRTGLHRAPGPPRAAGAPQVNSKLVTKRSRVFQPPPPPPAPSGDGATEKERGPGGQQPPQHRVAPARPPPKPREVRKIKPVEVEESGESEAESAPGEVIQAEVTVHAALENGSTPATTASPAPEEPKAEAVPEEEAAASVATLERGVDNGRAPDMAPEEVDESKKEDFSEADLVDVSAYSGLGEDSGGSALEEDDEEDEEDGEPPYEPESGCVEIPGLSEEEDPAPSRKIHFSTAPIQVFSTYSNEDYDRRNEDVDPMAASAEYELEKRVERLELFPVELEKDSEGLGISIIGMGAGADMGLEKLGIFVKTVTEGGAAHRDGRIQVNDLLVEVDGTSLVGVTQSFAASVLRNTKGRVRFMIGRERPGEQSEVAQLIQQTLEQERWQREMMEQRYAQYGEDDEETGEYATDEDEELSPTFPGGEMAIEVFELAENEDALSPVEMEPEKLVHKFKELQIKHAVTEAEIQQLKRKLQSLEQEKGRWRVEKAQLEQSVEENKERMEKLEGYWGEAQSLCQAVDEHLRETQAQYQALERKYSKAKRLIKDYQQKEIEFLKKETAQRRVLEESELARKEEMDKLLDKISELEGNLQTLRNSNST

Biological target: T1, E3 ubiquitin ligase PRAJA1 (mouse (endogenous in hippocampal CA1 tissue)) (UniProt O55176)
T1 sequence: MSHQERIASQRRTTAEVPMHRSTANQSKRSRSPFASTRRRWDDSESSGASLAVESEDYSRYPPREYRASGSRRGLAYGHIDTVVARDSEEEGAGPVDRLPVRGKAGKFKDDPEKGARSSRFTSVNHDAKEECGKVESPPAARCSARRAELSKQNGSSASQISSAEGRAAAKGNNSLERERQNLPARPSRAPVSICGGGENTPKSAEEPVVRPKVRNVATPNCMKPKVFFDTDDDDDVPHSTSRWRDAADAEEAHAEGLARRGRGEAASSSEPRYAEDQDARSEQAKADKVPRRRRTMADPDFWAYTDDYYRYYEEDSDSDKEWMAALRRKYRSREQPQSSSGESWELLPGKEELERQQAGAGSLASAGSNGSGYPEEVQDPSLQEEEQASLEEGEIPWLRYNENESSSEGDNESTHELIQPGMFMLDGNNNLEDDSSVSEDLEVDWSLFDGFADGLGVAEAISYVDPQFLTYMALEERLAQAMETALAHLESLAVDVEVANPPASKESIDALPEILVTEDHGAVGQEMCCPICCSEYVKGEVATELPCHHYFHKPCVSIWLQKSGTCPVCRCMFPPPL
Assay: affinity purification with mass spectrometry; co-immunoprecipitation with the PRAJA1 antibody from mouse CA1 lysate, trypsin digest, TIMS-TOF Pro mass spectrometry, search against SwissProt Mus musculus

binding: binds
Substance: spinophilin (neurabin 2) (from UniProt Q6R891 1-817)

No constants are given. Whether binding was seen depends on the method and setting. In cells and extracts the contact can be indirect. Here binding means that the protein was enriched with, or labelled near, the bait; the list need not be complete.
